Experimental data: the supplement of paper PMC12823440, “Inhibitors supercharge kinase turnover through native proteolytic circuits” (Nature, 2025)
The other results are listed elsewhere or left out. The calls rarely recur for the same compound in another form.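 Kinases were expressed as nanoluciferase fusions in K562 cells and luminescence was read every 4 h between 2 and 18 h as percent of control, DMSO set to 100% and a positive control to 0%. A time point counts as decreased when the signal drops significantly (2 sigma). The hit call is the authors' own, does not follow from the count of time points alone, and its rule is not shown.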

The chains behind the UniProt entries cited, without tags or fusion partners. Where a name states a change or a piece, a line headed by the entry shows the natural chain unless it says otherwise.
UniProt P50613: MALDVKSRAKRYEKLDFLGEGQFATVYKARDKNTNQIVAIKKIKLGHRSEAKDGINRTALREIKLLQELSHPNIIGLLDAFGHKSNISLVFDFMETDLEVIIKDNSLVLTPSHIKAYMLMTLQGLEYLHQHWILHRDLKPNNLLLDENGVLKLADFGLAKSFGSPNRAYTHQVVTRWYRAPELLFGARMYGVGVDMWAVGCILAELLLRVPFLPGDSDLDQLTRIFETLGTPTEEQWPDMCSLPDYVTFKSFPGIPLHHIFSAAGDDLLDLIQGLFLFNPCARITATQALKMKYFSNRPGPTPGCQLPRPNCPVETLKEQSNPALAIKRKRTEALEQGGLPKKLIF
UniProt P50750, whole entry: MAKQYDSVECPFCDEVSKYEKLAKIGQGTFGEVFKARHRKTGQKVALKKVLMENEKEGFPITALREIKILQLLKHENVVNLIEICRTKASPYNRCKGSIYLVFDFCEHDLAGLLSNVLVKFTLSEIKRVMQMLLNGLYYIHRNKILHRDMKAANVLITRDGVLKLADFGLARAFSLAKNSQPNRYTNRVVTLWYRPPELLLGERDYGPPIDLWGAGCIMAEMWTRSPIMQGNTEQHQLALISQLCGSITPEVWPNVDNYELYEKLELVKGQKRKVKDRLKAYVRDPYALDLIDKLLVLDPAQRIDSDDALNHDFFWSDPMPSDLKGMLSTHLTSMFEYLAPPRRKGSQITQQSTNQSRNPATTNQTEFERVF
UniProt O96017, whole entry: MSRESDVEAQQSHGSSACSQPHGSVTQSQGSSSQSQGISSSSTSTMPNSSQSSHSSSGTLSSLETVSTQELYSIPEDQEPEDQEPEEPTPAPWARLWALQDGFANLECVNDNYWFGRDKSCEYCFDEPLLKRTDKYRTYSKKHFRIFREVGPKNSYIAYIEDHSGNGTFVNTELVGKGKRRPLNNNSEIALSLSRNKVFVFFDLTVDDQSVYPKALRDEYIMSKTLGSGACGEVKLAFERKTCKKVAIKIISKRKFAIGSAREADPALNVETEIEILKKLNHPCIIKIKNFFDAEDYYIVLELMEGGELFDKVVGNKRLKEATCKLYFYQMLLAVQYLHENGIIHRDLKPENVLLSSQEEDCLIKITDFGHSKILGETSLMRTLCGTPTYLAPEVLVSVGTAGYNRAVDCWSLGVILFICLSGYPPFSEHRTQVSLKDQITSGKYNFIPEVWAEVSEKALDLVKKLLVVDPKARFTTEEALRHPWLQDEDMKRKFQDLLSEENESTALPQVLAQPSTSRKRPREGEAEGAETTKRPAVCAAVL
UniProt P41240: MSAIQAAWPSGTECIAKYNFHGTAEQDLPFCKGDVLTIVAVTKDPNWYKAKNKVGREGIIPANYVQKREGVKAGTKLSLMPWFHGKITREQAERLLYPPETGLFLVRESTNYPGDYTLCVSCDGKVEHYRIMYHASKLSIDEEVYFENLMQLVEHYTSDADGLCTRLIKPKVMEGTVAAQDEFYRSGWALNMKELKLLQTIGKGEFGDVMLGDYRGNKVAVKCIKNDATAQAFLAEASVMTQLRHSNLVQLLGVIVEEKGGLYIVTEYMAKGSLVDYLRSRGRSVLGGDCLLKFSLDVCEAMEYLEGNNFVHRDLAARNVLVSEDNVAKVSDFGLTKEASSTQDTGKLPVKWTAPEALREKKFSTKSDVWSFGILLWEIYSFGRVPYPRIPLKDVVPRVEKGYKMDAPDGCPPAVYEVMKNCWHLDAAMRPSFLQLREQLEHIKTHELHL
UniProt P48729: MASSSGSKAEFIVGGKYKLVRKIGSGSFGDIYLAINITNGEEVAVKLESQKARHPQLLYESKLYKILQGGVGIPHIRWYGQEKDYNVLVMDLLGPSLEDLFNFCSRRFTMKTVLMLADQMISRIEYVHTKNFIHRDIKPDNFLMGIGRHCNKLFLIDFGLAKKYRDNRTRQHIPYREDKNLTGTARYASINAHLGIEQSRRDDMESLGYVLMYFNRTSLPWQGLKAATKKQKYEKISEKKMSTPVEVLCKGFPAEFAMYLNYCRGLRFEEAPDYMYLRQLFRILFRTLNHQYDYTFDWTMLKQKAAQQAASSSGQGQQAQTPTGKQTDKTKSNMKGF
UniProt P48730: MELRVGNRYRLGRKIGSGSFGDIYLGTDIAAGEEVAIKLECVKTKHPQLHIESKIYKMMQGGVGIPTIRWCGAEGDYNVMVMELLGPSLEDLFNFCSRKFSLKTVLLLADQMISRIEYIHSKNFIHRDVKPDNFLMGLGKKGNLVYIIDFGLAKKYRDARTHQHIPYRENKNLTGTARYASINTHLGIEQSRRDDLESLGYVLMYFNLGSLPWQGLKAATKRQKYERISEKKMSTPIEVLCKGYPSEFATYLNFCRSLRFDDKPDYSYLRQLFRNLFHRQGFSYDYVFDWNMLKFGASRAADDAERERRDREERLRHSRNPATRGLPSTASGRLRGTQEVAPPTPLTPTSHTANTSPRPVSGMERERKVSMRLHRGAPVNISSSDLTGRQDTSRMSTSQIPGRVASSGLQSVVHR
UniProt Q08345: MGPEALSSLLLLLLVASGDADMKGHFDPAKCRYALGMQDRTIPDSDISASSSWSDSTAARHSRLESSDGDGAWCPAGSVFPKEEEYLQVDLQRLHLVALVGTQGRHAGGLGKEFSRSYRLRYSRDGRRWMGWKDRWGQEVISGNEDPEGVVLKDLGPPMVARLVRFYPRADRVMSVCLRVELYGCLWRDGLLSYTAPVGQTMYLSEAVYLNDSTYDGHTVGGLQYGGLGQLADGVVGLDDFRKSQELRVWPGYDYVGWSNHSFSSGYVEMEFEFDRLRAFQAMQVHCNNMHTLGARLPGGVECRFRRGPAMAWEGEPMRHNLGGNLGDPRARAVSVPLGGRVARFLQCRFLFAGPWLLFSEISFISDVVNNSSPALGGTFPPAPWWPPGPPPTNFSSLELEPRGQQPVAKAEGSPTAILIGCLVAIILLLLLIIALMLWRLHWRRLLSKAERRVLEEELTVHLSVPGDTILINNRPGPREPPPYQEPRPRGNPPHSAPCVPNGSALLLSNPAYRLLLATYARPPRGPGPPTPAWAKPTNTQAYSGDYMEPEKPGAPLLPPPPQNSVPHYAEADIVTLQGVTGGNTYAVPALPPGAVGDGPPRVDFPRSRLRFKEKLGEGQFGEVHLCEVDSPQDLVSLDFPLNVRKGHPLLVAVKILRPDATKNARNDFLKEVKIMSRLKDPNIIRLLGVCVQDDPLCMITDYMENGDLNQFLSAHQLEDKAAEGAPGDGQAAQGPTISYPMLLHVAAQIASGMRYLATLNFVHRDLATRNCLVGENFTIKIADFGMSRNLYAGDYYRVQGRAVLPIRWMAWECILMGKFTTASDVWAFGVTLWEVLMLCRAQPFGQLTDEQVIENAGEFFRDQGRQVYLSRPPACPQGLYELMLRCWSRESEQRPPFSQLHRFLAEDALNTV
UniProt Q92630: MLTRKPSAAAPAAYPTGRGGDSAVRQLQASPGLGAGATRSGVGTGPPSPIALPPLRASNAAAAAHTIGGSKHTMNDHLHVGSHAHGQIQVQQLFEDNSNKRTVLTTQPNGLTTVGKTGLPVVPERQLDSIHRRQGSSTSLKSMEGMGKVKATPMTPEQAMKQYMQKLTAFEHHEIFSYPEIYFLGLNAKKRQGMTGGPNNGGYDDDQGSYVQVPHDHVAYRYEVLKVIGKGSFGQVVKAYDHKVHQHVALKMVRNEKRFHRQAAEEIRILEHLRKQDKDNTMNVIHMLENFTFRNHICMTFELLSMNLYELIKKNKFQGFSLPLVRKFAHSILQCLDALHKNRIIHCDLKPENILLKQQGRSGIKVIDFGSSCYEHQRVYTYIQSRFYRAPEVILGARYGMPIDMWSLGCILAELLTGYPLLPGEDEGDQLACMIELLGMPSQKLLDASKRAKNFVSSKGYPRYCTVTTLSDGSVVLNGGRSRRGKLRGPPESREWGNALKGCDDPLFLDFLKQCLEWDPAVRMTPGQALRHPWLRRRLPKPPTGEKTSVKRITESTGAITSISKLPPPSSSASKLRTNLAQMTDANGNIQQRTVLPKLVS
UniProt P29317, whole entry: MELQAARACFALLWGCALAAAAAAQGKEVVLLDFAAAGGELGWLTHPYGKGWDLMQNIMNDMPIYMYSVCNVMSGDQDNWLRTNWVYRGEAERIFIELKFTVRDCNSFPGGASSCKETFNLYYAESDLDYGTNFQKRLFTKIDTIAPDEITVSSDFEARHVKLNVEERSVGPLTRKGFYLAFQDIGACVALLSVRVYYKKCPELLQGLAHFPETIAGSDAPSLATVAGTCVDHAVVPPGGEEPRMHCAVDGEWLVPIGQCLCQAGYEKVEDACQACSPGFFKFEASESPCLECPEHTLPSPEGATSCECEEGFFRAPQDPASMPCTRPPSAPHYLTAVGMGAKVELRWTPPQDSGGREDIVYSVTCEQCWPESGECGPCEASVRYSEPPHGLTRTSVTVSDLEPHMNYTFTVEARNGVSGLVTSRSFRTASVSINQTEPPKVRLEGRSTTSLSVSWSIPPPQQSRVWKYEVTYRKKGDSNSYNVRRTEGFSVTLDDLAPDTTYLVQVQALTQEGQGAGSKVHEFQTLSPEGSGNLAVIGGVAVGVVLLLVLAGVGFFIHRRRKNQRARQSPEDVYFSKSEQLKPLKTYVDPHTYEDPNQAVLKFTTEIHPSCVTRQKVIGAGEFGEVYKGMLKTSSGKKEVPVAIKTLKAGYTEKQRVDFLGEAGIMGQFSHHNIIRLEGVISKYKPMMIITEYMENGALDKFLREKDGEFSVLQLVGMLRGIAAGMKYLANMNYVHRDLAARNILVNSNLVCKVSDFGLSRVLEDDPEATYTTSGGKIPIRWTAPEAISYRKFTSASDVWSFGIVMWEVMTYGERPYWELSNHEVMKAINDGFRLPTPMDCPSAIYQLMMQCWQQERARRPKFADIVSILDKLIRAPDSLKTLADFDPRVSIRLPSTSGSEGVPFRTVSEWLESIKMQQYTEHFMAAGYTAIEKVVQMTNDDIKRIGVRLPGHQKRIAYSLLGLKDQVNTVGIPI
UniProt Q15303, whole entry R711C: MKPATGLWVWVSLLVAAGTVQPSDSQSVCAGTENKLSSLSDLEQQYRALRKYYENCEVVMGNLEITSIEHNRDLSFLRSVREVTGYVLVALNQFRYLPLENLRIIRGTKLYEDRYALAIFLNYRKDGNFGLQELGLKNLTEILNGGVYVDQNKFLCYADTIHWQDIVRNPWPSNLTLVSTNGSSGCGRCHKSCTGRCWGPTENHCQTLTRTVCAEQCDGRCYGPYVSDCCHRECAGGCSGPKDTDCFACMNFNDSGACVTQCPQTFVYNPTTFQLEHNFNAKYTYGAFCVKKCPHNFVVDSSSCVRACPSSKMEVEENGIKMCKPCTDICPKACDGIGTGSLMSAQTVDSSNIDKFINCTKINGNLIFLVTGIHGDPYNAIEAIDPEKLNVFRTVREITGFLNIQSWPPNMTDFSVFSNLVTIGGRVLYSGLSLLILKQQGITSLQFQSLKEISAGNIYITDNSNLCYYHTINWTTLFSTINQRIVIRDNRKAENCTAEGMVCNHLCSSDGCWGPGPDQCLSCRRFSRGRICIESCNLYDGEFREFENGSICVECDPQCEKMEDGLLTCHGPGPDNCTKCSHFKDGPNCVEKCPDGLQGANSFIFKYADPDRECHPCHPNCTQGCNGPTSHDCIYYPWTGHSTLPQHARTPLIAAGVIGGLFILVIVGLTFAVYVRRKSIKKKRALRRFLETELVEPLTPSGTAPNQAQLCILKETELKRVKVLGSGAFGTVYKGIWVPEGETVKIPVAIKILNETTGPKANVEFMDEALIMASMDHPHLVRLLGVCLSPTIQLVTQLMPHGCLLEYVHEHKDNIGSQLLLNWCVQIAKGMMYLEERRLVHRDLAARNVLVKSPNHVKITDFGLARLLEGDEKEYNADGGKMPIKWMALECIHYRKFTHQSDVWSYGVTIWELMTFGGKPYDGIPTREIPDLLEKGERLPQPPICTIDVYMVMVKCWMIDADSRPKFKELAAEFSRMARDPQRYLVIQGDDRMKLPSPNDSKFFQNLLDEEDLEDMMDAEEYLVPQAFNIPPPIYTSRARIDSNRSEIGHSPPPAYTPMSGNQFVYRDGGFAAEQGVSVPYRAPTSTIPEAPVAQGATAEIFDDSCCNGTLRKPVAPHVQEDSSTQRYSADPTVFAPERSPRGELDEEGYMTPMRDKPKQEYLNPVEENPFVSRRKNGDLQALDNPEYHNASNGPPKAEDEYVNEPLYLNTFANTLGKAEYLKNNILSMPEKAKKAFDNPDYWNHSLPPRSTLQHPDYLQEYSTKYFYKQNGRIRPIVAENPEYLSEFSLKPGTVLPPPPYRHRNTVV

Tests used:
Assay in all cases: kinase-Nluc reporter destabilization hit call (1 = scored as downregulated) (binary); higher = compound decreases kinase abundance
Conditions in all cases: K562; 2-18 h
CDK7 = CDK7 (UniProt P50613)
CDK9 = CDK9 (UniProt P50750)
CHEK2 = CHEK2 (UniProt O96017)
CSF1R = CSF1R (UniProt P07333)
CSK = CSK (UniProt P41240)
CSNK1A1 = CSNK1A1 (UniProt P48729)
CSNK1D = CSNK1D (UniProt P48730)
DDR1 = DDR1 (UniProt Q08345)
DYRK1B = DYRK1B (UniProt Q9Y463)
DYRK2 = DYRK2 (UniProt Q92630)
EGFR = EGFR (UniProt P00533)
EGFR_G719S = EGFR_G719S (UniProt P00533)
EGFR_G719S_T790M = EGFR_G719S_T790M (UniProt P00533)
EGFR_L718V = EGFR_L718V (UniProt P00533)
EGFR_L858R = EGFR_L858R (UniProt P00533)
EGFR_L861Q = EGFR_L861Q (UniProt P00533)
EGFR_T790M = EGFR_T790M (UniProt P00533)
EPHA2 = EPHA2 (UniProt P29317)
ERBB3 = ERBB3 (UniProt P21860)
[1] = molecular target: ERBB4_R711C (clone: ERBB4_mut) (UniProt Q15303)

Measured: kinase-Nluc reporter destabilization hit call

Cn1ncc(Cl)c1-c1cc(C(=O)N[C@H](CN)Cc2ccc(F)c(F)c2)oc1Cl [Uprosertib] (10 µM)
inactive: CDK7 = 0 | CDK9 = 0 | CHEK2 = 0 | CSF1R 0 | CSK 0 | CSNK1A1 = 0 | CSNK1D 0 | DDR1 = 0 | DYRK1B 0 | DYRK2 = 0 | EGFR 0 | EGFR_G719S 0 | EGFR_G719S_T790M 0 | EGFR_L718V 0 | EGFR_L858R 0 | EGFR_L861Q 0 | EGFR_T790M 0 | EPHA2 = 0 | ERBB3 = 0 | [1] 0

CCN1CCN(Cc2ccc(Nc3ncc(F)c(-c4cc(F)c5nc(C)n(C(C)C)c5c4)n3)nc2)CC1 [Abemaciclib] (2 µM)
inactive: CDK7 = 0 | CDK9 = 0 | CHEK2 = 0 | CSF1R 0 | CSK 0 | CSNK1A1 = 0 | CSNK1D 0 | DDR1 = 0 | DYRK1B 0 | DYRK2 = 0 | EGFR 0 | EGFR_G719S 0 | EGFR_G719S_T790M 0 | EGFR_L718V 0 | EGFR_L858R 0 | EGFR_L861Q 0 | EGFR_T790M 0 | EPHA2 = 0 | ERBB3 = 0 | [1] 0

O=S(=O)(NCCCN1c2ccccc2CCc2ccc(Cl)cc21)c1ccc(OC(F)(F)F)cc1 (2.5 µM)
inactive: CDK7 = 0 | CDK9 = 0 | CHEK2 = 0 | CSF1R 0 | CSK 0 | CSNK1A1 = 0 | CSNK1D 0 | DDR1 = 0 | DYRK1B 0 | DYRK2 = 0 | EGFR 0 | EGFR_G719S 0 | EGFR_G719S_T790M 0 | EGFR_L718V 0 | EGFR_L858R 0 | EGFR_L861Q 0 | EGFR_T790M 0 | EPHA2 = 0 | ERBB3 = 0 | [1] 0

Cn1cc(-c2ccc3nnc(Sc4ccc5ncccc5c4)n3n2)cn1 (10 µM)
inactive: CDK7 = 0 | CDK9 = 0 | CHEK2 = 0 | CSF1R 0 | CSK 0 | CSNK1A1 = 0 | CSNK1D 0 | DDR1 = 0 | DYRK1B 0 | DYRK2 = 0 | EGFR 0 | EGFR_G719S 0 | EGFR_G719S_T790M 0 | EGFR_L718V 0 | EGFR_L858R 0 | EGFR_L861Q 0 | EGFR_T790M 0 | EPHA2 = 0 | ERBB3 = 0 | [1] 0

No new results follow: 2 of the compounds above.
CCN1CCN(Cc2ccc(Nc3ncc(F)c(-c4cc(F)c5nc(C)n(C(C)C)c5c4)n3)nc2)CC1 [Abemaciclib] (2 µM)
inactive: CDK7 = 0 | CDK9 = 0 | CHEK2 = 0 | CSF1R 0 | CSK 0 | CSNK1A1 = 0 | CSNK1D 0 | DDR1 = 0 | DYRK1B 0 | DYRK2 = 0 | EGFR 0 | EGFR_G719S 0 | EGFR_G719S_T790M 0 | EGFR_L718V 0 | EGFR_L858R 0 | EGFR_L861Q 0 | EGFR_T790M 0 | EPHA2 = 0 | ERBB3 = 0 | [1] 0

O=S(=O)(NCCCN1c2ccccc2CCc2ccc(Cl)cc21)c1ccc(OC(F)(F)F)cc1 (2.5 µM)
inactive: CDK7 = 0 | CDK9 = 0 | CHEK2 = 0 | CSF1R 0 | CSK 0 | CSNK1A1 = 0 | CSNK1D 0 | DDR1 = 0 | DYRK1B 0 | DYRK2 = 0 | EGFR 0 | EGFR_G719S 0 | EGFR_G719S_T790M 0 | EGFR_L718V 0 | EGFR_L858R 0 | EGFR_L861Q 0 | EGFR_T790M 0 | EPHA2 = 0 | ERBB3 = 0 | [1] 0

Later entries.

O=C1N[C@@H](Cc2c[nH]c3ccccc23)C(=O)N2CCC[C@@H]12 [Brevianamide F] (10 µM)
inactive: CDK7 = 0 | CDK9 = 0 | CHEK2 = 0 | CSF1R 0 | CSK 0 | CSNK1A1 = 0 | CSNK1D 0 | DDR1 = 0 | DYRK1B 0 | DYRK2 = 0 | EGFR 0 | EGFR_G719S 0 | EGFR_G719S_T790M 0 | EGFR_L718V 0 | EGFR_L858R 0 | EGFR_L861Q 0 | EGFR_T790M 0 | EPHA2 = 0 | ERBB3 = 0 | [1] 0

CC1(C)C(O[C@@H]2OC[C@@H](O)[C@H](O)[C@H]2O)CC[C@]23CC24CC[C@]2(C)[C@@H]([C@@]5(C)CC[C@@H](C(C)(C)O)O5)[C@H](O)C[C@@]2(C)C4C[C@@H](O[C@@H]2O[C@H](CO)[C@@H](O)[C@H](O)[C@H]2O)C13 (stereo not given in full) [Astragaloside IV] (10 µM)
inactive: CDK7 = 0 | CDK9 = 0 | CHEK2 = 0 | CSF1R 0 | CSK 0 | CSNK1A1 = 0 | CSNK1D 0 | DDR1 = 0 | DYRK1B 0 | DYRK2 = 0 | EGFR 0 | EGFR_G719S 0 | EGFR_G719S_T790M 0 | EGFR_L718V 0 | EGFR_L858R 0 | EGFR_L861Q 0 | EGFR_T790M 0 | EPHA2 = 0 | ERBB3 = 0 | [1] 0

C=C(CC[C@@H](C(=O)O)[C@H]1[C@H](O)C[C@@]2(C)C3=C(CC[C@]12C)[C@@]1(C)CC[C@H](OC(C)=O)C(C)(C)[C@@H]1CC3)C(C)C [Pachymic acid] (10 µM)
inactive: CDK7 = 0 | CDK9 = 0 | CHEK2 = 0 | CSF1R 0 | CSK 0 | CSNK1A1 = 0 | CSNK1D 0 | DDR1 = 0 | DYRK1B 0 | DYRK2 = 0 | EGFR 0 | EGFR_G719S 0 | EGFR_G719S_T790M 0 | EGFR_L718V 0 | EGFR_L858R 0 | EGFR_L861Q 0 | EGFR_T790M 0 | EPHA2 = 0 | ERBB3 = 0 | [1] 0

CC(C)(C)c1cc(O)ccc1O (10 µM)
inactive: CDK7 = 0 | CDK9 = 0 | CHEK2 = 0 | CSF1R 0 | CSK 0 | CSNK1A1 = 0 | CSNK1D 0 | DDR1 = 0 | DYRK1B 0 | DYRK2 = 0 | EGFR 0 | EGFR_G719S 0 | EGFR_G719S_T790M 0 | EGFR_L718V 0 | EGFR_L858R 0 | EGFR_L861Q 0 | EGFR_T790M 0 | EPHA2 = 0 | ERBB3 = 0 | [1] 0

COc1cc(Nc2ncc(F)c(Nc3ccc4c(n3)N(COP(=O)(O)O)C(=O)C(C)(C)O4)n2)cc(OC)c1OC [Fostamatinib Disodium] (10 µM)
inactive: CDK7 = 0 | CDK9 = 0 | CHEK2 = 0 | CSF1R 0 | CSK 0 | CSNK1A1 = 0 | CSNK1D 0 | DDR1 = 0 | DYRK1B 0 | DYRK2 = 0 | EGFR 0 | EGFR_G719S 0 | EGFR_G719S_T790M 0 | EGFR_L718V 0 | EGFR_L858R 0 | EGFR_L861Q 0 | EGFR_T790M 0 | EPHA2 = 0 | ERBB3 = 0 | [1] 0

CCCCCCCCCCCCC/C=C/[C@@H](O)[C@@H](N)CO [D-erythro-Sphingosine] (2.5 µM)
inactive: CDK7 = 0 | CDK9 = 0 | CHEK2 = 0 | CSF1R 0 | CSK 0 | CSNK1A1 = 0 | CSNK1D 0 | DDR1 = 0 | DYRK1B 0 | DYRK2 = 0 | EGFR 0 | EGFR_G719S 0 | EGFR_G719S_T790M 0 | EGFR_L718V 0 | EGFR_L858R 0 | EGFR_L861Q 0 | EGFR_T790M 0 | EPHA2 = 0 | ERBB3 = 0 | [1] 0

CCCS(=O)(=O)Nc1ccc(F)c(C(=O)c2c[nH]c3ncc(-c4ccc(Cl)cc4)cc23)c1F [Vemurafenib] (10 µM)
inactive: CDK7 = 0 | CDK9 = 0 | CHEK2 = 0 | CSF1R 0 | CSK 0 | CSNK1A1 = 0 | CSNK1D 0 | DDR1 = 0 | DYRK1B 0 | DYRK2 = 0 | EGFR 0 | EGFR_G719S 0 | EGFR_G719S_T790M 0 | EGFR_L718V 0 | EGFR_L858R 0 | EGFR_L861Q 0 | EGFR_T790M 0 | EPHA2 = 0 | ERBB3 = 0 | [1] 0

COc1ccc(-c2ccc3c(N4CCOCC4)nc(N4C[C@@H](C)O[C@@H](C)C4)nc3n2)cc1CO (2.5 µM)
inactive: CDK7 = 0 | CDK9 = 0 | CHEK2 = 0 | CSF1R 0 | CSK 0 | CSNK1A1 = 0 | CSNK1D 0 | DDR1 = 0 | DYRK1B 0 | DYRK2 = 0 | EGFR 0 | EGFR_G719S 0 | EGFR_G719S_T790M 0 | EGFR_L718V 0 | EGFR_L858R 0 | EGFR_L861Q 0 | EGFR_T790M 0 | EPHA2 = 0 | ERBB3 = 0 | [1] 0

COc1ccccc1-c1cc(Nc2cccc(CS(N)(=O)=O)c2)ncn1 (10 µM)
inactive: CDK7 = 0 | CDK9 = 0 | CHEK2 = 0 | CSF1R 0 | CSK 0 | CSNK1A1 = 0 | CSNK1D 0 | DDR1 = 0 | DYRK1B 0 | DYRK2 = 0 | EGFR 0 | EGFR_G719S 0 | EGFR_G719S_T790M 0 | EGFR_L718V 0 | EGFR_L858R 0 | EGFR_L861Q 0 | EGFR_T790M 0 | EPHA2 = 0 | ERBB3 = 0 | [1] 0

Oc1cc(O)c2cc(O)c(-c3cc(O)c(O)c(O)c3)[o+]c2c1 [Delphinidin (chloride)] (10 µM)
inactive: CDK7 = 0 | CDK9 = 0 | CHEK2 = 0 | CSF1R 0 | CSK 0 | CSNK1A1 = 0 | CSNK1D 0 | DDR1 = 0 | DYRK1B 0 | DYRK2 = 0 | EGFR 0 | EGFR_G719S 0 | EGFR_G719S_T790M 0 | EGFR_L718V 0 | EGFR_L858R 0 | EGFR_L861Q 0 | EGFR_T790M 0 | EPHA2 = 0 | ERBB3 = 0 | [1] 0

O=Nc1c(-c2c(O)[nH]c3ccc(I)cc23)[nH]c2ccccc12 [5-Iodo-indirubin-3'-monoxime] (10 µM)
inactive: CDK7 = 0 | CDK9 = 0 | CHEK2 = 0 | CSF1R 0 | CSK 0 | CSNK1A1 = 0 | CSNK1D 0 | DDR1 = 0 | DYRK1B 0 | DYRK2 = 0 | EGFR 0 | EGFR_G719S 0 | EGFR_G719S_T790M 0 | EGFR_L718V 0 | EGFR_L858R 0 | EGFR_L861Q 0 | EGFR_T790M 0 | EPHA2 = 0 | ERBB3 = 0 | [1] 0

CC(C)(O)CNc1ncc(-c2ccnc(Nc3ccnc(Cl)c3)n2)c(CC2CC2)n1 (2.5 µM)
inactive: CDK7 = 0 | CDK9 = 0 | CHEK2 = 0 | CSF1R 0 | CSK 0 | CSNK1A1 = 0 | CSNK1D 0 | DDR1 = 0 | DYRK1B 0 | DYRK2 = 0 | EGFR 0 | EGFR_G719S 0 | EGFR_G719S_T790M 0 | EGFR_L718V 0 | EGFR_L858R 0 | EGFR_L861Q 0 | EGFR_T790M 0 | EPHA2 = 0 | ERBB3 = 0 | [1] 0

CN1C(=O)N[C@H](Cc2c[nH]c3c(Cl)cccc23)C1=O [Necrostatin 2] (10 µM)
inactive: CDK7 = 0 | CDK9 = 0 | CHEK2 = 0 | CSF1R 0 | CSK 0 | CSNK1A1 = 0 | CSNK1D 0 | DDR1 = 0 | DYRK1B 0 | DYRK2 = 0 | EGFR 0 | EGFR_G719S 0 | EGFR_G719S_T790M 0 | EGFR_L718V 0 | EGFR_L858R 0 | EGFR_L861Q 0 | EGFR_T790M 0 | EPHA2 = 0 | ERBB3 = 0 | [1] 0

CN(CC(=O)N(Cc1ccc(C2CCCCC2)cc1)c1ccc(C(=O)NO)cc1)S(=O)(=O)c1c(F)c(F)c(F)c(F)c1F (2.5 µM)
inactive: CDK7 = 0 | CDK9 = 0 | CHEK2 = 0 | CSF1R 0 | CSK 0 | CSNK1A1 = 0 | CSNK1D 0 | DDR1 = 0 | DYRK1B 0 | DYRK2 = 0 | EGFR 0 | EGFR_G719S 0 | EGFR_G719S_T790M 0 | EGFR_L718V 0 | EGFR_L858R 0 | EGFR_L861Q 0 | EGFR_T790M 0 | EPHA2 = 0 | ERBB3 = 0 | [1] 0
